Percent effect of library compounds

Protein sequences, listed by entry. Tags and fused reporters are not part of them. Residues count along the entry.
UniProt Q4DA54, 1-478: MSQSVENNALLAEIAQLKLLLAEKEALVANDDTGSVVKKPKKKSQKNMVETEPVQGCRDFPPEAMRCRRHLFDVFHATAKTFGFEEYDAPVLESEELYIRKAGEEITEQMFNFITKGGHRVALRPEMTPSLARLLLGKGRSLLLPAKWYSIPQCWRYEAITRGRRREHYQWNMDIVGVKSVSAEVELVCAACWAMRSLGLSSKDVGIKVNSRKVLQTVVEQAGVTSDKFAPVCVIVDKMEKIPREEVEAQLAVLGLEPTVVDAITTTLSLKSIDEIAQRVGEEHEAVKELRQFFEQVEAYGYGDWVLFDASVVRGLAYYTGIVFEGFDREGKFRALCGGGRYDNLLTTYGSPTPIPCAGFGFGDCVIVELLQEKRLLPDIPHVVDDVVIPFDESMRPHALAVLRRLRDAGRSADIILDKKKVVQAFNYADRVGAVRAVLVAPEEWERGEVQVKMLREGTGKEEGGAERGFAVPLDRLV
UniProt P9WNZ1, whole entry: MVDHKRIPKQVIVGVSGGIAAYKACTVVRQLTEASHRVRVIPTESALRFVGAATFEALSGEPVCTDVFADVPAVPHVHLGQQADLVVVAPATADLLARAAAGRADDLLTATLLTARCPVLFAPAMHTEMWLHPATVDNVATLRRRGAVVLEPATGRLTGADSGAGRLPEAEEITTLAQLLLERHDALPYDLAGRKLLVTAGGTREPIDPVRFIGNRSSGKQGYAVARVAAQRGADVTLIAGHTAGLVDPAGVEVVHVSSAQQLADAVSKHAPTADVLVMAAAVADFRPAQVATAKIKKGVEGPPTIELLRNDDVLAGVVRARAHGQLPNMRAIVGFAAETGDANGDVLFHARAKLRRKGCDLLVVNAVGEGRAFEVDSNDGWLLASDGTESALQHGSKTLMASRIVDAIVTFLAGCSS

Source: ChEMBL document CHEMBL3988442, “University of Dundee, Small-Polar-MMV Screening Library” (2021).

Values are the deposited “Percent Effect”, in %.
The record does not define 0% and 100%; most values in the screen are far below 50% and negative numbers occur (in some assays of this library far below -100).
This is an unselected part of the compounds tested.
A dash means the value is not listed here; it may have been measured.

Toxoplasma: 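Assay of Toxoplasma gondii numbers, read through their beta-galactosidase reporter with a colour substrate. Tested at 10 µM. The record gives no direction; the compounds picked for IC50 retests had high values, so higher reads as fewer parasites. Size under these conditions: about 67,000 compounds, about 260 of them at 50% or above in at least one test.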
TcHisRS: 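Histidine-tRNA ligase, Trypanosoma cruzi CL Brener (UniProt Q4DA54). Enzyme assay of histidyl-tRNA synthetase; the read-out is not stated. Concentration: 30 µM. The record gives no direction; compounds that gave an IC50 in retests scored well above the rest, so higher reads as stronger inhibition. Size under these conditions: about 69,000 compounds, about 31 of them at 50% or above in at least one test.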
CoaBC: 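Enzyme assay of CoaBC with a phosphate dye (Biomol Green) read at 650 nm. Target: Coenzyme A biosynthesis protein CoaBC, Mycobacterium tuberculosis (UniProt P9WNZ1). Tested at 30 µM. Higher reads as stronger inhibition, judged from the few compounds that gave an IC50. Most strong results did not repeat in a second test. About 67,000 compounds were tested under these conditions; 0.06% (about 40) showed 50% or more at least once.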
Leishmania in macrophages: 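Cell assay of Leishmania donovani living inside macrophages; the read-out is not stated. Compounds at 30 µM. The record gives no direction; compounds that gave an IC50 in retests scored well above the rest, so higher reads as stronger inhibition. Of about 69,000 compounds tested this way, about 1,000 (1.5%) reached 50% or more in at least one test.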

| # | SMILES | Toxoplasma | TcHisRS | CoaBC | Leishmania in macrophages |
|---|---|---|---|---|---|
| 1 | `O=C(O)C(F)(F)F.[H][C@@]12C[C@H](C(=O)NC)[C@@]([H])(CN(Cc3cccc(C)c3)C1)O2` | -21.66 | - | - | 36.09 |
| 2 | `O=C(COc1ccccc1)NCCNC(=O)c1scnc1Cl` | 7.728 | 3.39 | 4.178 | 23.67 |
| 3 | `CCN1CCc2c(CNC(=O)c3nccn3C)cncc2C1` | - | -2.062 | 2.463 | - |
| 4 | `Cc1nnc(N2CCO[C@H]3[C@@H](OCc4ccccn4)CC[C@@H]32)s1` | - | 0.4975 | 15.91 | - |
| 5 | `CSc1cccc(CN(C)C(=O)c2ccc(C3CCCNC3)cc2)c1` (centres unmarked) | -43.72 | 13.6 | -39.61 | 52.27 |
| 6 | `CN(CC1Cc2ccccc2CN1C)C(=O)Cc1cccs1` (centres unmarked) | 23.19 | 2.564 | 1.491 | 58.51 |
| 7 | `CCN1CCN(S(=O)(=O)c2ccc(Cc3cc(C)n[nH]c3=O)cc2)CC1` | -9.825 | -2.424 | 1.022 | -33.3 |
| 8 | `CN(C)C(=O)NCc1nnc2n1CCN(Cc1cccs1)C2` | -5.798 | 0 | - | 25.54 |
| 9 | `Cc1nnc(SCCCNC(=O)Nc2ccc3c(c2)OCO3)s1` | -1.966 | 1.786 | 0.1218 | -24 |
| 10 | `CCCS(=O)(=O)N1CCc2c(COCC)cncc2C1` | - | 6.952 | -2.5 | - |
| 11 | `O=C(Nc1cn[nH]c1)N1CCCCCC1c1ccncc1` (centres unmarked) | 5.953 | 10.31 | 7.159 | -2.084 |
| 12 | `COCCO[C@@H]1CCN(C(=O)c2ccc(C)o2)[C@@H]1Cc1cccnc1` | - | 3.743 | -4.348 | - |
| 13 | `Cn1cccc1C(=O)NS(=O)(=O)c1cnn(-c2ccccc2F)c1` | -32.56 | 2.618 | -5.782 | -35.88 |
| 14 | `CCN(CC)S(=O)(=O)c1ccc(CCC(=O)NCc2cc(C)on2)cc1` | -4.174 | 6.349 | -4.339 | 4.964 |
| 15 | `CCCNC(=O)C1CCN(CC(O)c2ccc(C(F)(F)F)cc2)CC1` (centres unmarked) | 29.5 | 5.603 | 2.915 | 38.35 |
| 16 | `Cc1cc(C2CCCN2c2ncc(C(N)=O)cc2Cl)no1` (centres unmarked) | 10.13 | 10.99 | -1.499 | 8.474 |
| 17 | `CCN(C(=O)Cc1ccc(NCc2ncc[nH]2)cc1)c1ccccc1` | 4.854 | 8.28 | - | 19.51 |
| 18 | `COCCN(C)C[C@@H]1CN(C(=O)c2ccc(=O)n(C)c2)C[C@@H]1CO` | -13.16 | 4.04 | 2.694 | 35.61 |
| 19 | `COc1ccccc1CN1C[C@@H](F)[C@@H](OCc2nc3ccccc3[nH]2)C1` | -0.1239 | -3.483 | 14.73 | -13.9 |
| 20 | `Cn1ccnc1COc1ccc(CN2CCN(CCO)CC2)cc1` | -2.012 | 4.58 | -1.687 | 23.85 |
| 21 | `[H][C@@]12CCNCC1OCCN2C(=O)c1ccccc1` (some centres unmarked) | -12.02 | - | - | 29.92 |
| 22 | `O=C(Cn1cccn1)N1CCC(Cn2cc(-c3ccsc3)nn2)CC1` | -6.551 | 2.326 | 3.433 | -2.485 |
| 23 | `CC(C)NC(=O)N[C@H]1C[C@@H](c2nc(-c3ccncc3)no2)N(C)C1` | -4.514 | 3.261 | 7.726 | -10.7 |
| 24 | `Cc1n[nH]cc1CNCC1(c2cccc(F)c2)CCOCC1.Cl` | -1.81 | - | - | 23.91 |
| 25 | `c1cnc(-c2nc(CNCCn3cccn3)cs2)nc1` | -5.363 | 2.662 | 0.7979 | -17.9 |
| 26 | `CN1CCCC(c2nccnc2-c2cccc(C(F)(F)F)c2)C1` (centres unmarked) | 5.734 | 0.565 | -6.538 | 39.55 |
| 27 | `COCCOCC(=O)Nc1ccc(C)cc1Cl` | 4.923 | 0.5025 | -0.361 | -38.7 |
| 28 | `O=C(c1ccc(N2CCCC2)nc1)N1CCCC(n2cncn2)C1` (centres unmarked) | 4.147 | 4.985 | 2.105 | -10.28 |
| 29 | `CN(CC(=O)N1CCCC1)C(=O)c1ccccc1Nc1ccccc1` | -5.68 | 11.31 | 12.55 | -2.979 |
| 30 | `COCCNC(=O)NCc1ccc(OC(C)C)c(F)c1` | 4.959 | -0.7576 | 11.85 | 3.131 |
| 31 | `Cc1cc(N2CCN(CCO)CC2)nc(-c2ccncc2)n1` | -1.056 | 10.87 | 5.803 | 33.44 |
| 32 | `CN1CCN(CC(C)(C)C)CC1CCO` (centres unmarked) | 19.55 | 4.721 | 4.426 | 27.19 |
| 33 | `CCCS(=O)(=O)N1CCOC2(CCCN(c3ncc(F)cn3)C2)C1` (centres unmarked) | -7.83 | 5.747 | 3.074 | 13.79 |
| 34 | `Cc1nn(CC(=O)N2CCCCC2Cn2cccn2)c(C)c1Cl` (centres unmarked) | -2.245 | 2.674 | -1.863 | 5.355 |
| 35 | `c1ccc(CCN2CCCC2c2cncc(Nc3nncs3)n2)cc1` (centres unmarked) | - | 2.308 | 1.663 | 11.52 |
| 36 | `CCC[C@@H]1CN(C(=O)c2ccccc2C(C)=O)C[C@H]1N(C)C` | -34.8 | 6.186 | 6.374 | -2.125 |
| 37 | `Cc1nccn1-c1cccc(C2CCCN(C(=O)c3cc[nH]n3)C2)n1` (centres unmarked) | -11.24 | -4.301 | 5.105 | -12.85 |

The last 4 entries again:

SMILES	Toxoplasma	TcHisRS	CoaBC	Leishmania in macrophages
Cc1nn(CC(=O)N2CCCCC2Cn2cccn2)c(C)c1Cl (centres unmarked)	-2.245	2.674	-1.863	5.355
c1ccc(CCN2CCCC2c2cncc(Nc3nncs3)n2)cc1 (centres unmarked)	-	2.308	1.663	11.52
CCC[C@@H]1CN(C(=O)c2ccccc2C(C)=O)C[C@H]1N(C)C	-34.8	6.186	6.374	-2.125
Cc1nccn1-c1cccc(C2CCCN(C(=O)c3cc[nH]n3)C2)n1 (centres unmarked)	-11.24	-4.301	5.105	-12.85